Drawing on paper PMC7862700, this text covers binding signal for 40 sequences.

Sequences of proteins named here, by UniProt entry; tags and fusion partners are left off. A change or cut given only in a name is not applied to a line headed by its entry.
UniProt Q00613: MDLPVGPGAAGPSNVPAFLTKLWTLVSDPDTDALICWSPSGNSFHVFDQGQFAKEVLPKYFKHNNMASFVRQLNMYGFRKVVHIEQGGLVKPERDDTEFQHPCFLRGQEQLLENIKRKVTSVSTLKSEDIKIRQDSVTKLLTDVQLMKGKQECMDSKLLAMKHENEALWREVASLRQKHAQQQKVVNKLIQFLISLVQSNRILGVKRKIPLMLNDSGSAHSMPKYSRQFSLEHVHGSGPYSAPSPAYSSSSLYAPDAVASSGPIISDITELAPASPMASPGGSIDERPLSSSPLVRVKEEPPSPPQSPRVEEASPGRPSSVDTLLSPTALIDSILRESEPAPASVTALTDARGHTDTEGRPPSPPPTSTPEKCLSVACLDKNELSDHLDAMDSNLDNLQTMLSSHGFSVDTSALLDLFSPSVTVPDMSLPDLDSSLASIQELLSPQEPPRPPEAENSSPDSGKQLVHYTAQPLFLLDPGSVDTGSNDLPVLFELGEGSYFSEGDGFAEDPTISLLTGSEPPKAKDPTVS

The entries are a selection whose mix differs from that of the whole data set. For part of these data: At the low end of the ranking the order means little. The list shows a part of the results. For part of these data: Construct or isoform of the protein are uncertain.

One test has as its target HSF1 (UniProt Q00613). Description: DAPPL (digital affinity profiling via proximity ligation, sequencing). The conditions noted are these: 10 mM Tris-HCl pH 7.5, 50 mM NaCl, 1 mM DTT, 4% glycerol, room temperature, 30 min; GST-TFs on glutathione beads, 16-mer random dsDNA library, 0.1% …; high values mean tight binding; double strand, one strand shown; scale: fold enrichment (6-mer frequency, TF over GST control).
Sequence CATCGC had a binding signal of 0.988.
Same read-out and setting: in the case of ACCATT it was 0.998; in that of CTATCA, 0.993.
For AACTGA, the binding signal was 0.957.
The same measure, in the same setting: then CTTGAG, with 0.918; and CGCACT, with 0.972; and GACTAC, with 0.896.
CTGTGC returned a binding signal of 0.898.
Same read-out and setting: then TACAAA, with 1.12; and CCCAAC, with 0.833.
Take TGGTCC: the binding signal is 0.933.

The next test deals with T1, ELF2 (UniProt Q15723).
T1 sequence: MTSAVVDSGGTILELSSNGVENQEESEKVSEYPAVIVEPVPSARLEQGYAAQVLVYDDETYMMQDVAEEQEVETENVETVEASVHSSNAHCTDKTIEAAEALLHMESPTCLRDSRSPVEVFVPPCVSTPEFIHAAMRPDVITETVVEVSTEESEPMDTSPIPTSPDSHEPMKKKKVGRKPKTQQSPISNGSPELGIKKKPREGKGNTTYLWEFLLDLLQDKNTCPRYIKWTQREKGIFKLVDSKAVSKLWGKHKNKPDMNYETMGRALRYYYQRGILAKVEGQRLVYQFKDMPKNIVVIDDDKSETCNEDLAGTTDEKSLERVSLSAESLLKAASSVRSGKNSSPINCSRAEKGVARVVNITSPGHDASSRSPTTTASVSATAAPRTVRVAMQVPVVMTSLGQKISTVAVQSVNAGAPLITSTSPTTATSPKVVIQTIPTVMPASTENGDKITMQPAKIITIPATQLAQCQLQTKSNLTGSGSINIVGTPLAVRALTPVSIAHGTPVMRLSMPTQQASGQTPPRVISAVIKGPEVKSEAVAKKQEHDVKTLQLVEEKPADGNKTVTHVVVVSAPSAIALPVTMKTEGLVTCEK
The test is described as above. The conditions noted are these: 10 mM Tris-HCl pH 7.5, 50 mM NaCl, 1 mM DTT, 4% glycerol, room temperature, 30 min; GST-TFs on glutathione beads, 16-mer random dsDNA library, 0.1% …; high values mean tight binding; double strand, one strand shown; scale: fold enrichment (6-mer frequency, TF over GST control).
On to CATCGC, for which the binding signal worked out at 1.03.
The same measure, in the same setting: in the case of CGAGAA it was 0.847; in that of TCTATA, 1.1; in that of CCGAGC, 1.05.
Still for that read-out and setting: then TTCCAT, with 1.23.
The same measure, in the same setting: then ACCATT, with 1.12.
Consider CGTCGA, for which the binding signal turned out to be 0.837.
Same read-out and setting: in the case of ATACAC it was 1.24.
On the same count and under the same terms, then AGCTAT, with 1.12; and GTAAGC, with 0.897.
The same measure, in the same setting: in the case of CTATCA it was 1; in that of GAAAAA, 1.2; in that of AACTGA, 1.08.
Sequence CTTGAG yielded a binding signal of 0.872.
Still for that read-out and setting: then TGATGC, with 1.49; and AAACTT, with 1.32; and CCCACT, with 1.36.
Still for that read-out and setting: in the case of ATCTGC it was 1.32; in that of GTATCC, 2.09.
The same measure, in the same setting: in the case of GGGTTT it was 1.11.
In turn, CTTAAG showed a binding signal of 1.04.
On the same count and under the same terms, then CGCACT, with 1.32; and GACTAC, with 1.13.
GAAGGT yielded a binding signal of 0.885.
The same measure, in the same setting: then TAGAGA, with 0.777.
Still for that read-out and setting: then CTGTGC, with 1.08; and AAATGC, with 1.31; and TCAAAA, with 1.15.
Same read-out and setting: then TACAAA, with 1.09.
For the sequence AGAAGT, the binding signal worked out at 1.02.
The same measure, in the same setting: in the case of CATTTT it was 1.17; in that of TATTTG, 1.41; in that of AATCAC, 1.08.
The same measure, in the same setting: then CCCAAC, with 1.1; and CCTAGC, with 1.11; and CACTGC, with 1.37.
Same read-out and setting: in the case of CTGTAC it was 1.34; in that of CAACTA, 1.29.
Sequence TGGTCC had a binding signal of 1.15.
For the sequence CTATTG, the binding signal was 1.3.
